# The list does not hold the whole screen: it gathers tests that were run many times, whatever their T/C, doses with no T/C, and many T/C values between a quarter and a half above the control. Further doses and runs are listed elsewhere. T/C gives the treated animals as a percentage of the vehicle group. Some doses have a count of surviving animals in place of a T/C: the source holds a T/C of zero for them, seemingly a mark for toxic or unscored doses. Some survivor counts are full or nearly so, which does not show that the dose was tolerated: the source hardly ever lists a survival T/C far under the control, and the zero likely stands for such cases as well. Survivors were counted at the toxicity check, usually on the fifth day, unless a day is given; later deaths do not show. Schedules are NCI's codes, taken here to give the interval after Q, in days (D) or hours (H), and the number of doses after X. Some schedule codes hold Z or #, which are not explained here. Where survival is the endpoint, the PubChem record calls one and a half times the control and up active, and a quarter to a half above the control has no call in these data; cut-offs in other NCI protocols can differ. Some T/C values are followed by the survivors on the day toxicity was checked, most often the fifth; where none is given, no animal had died by that day.
# Tested on: L1210 leukemia ip in BDF1 mice, survival T/C
# Assay: NCI In Vivo Anticancer Drug Screen. Data for tumor model L1210 Leukemia (intraperitoneal) in B6D2F1 (BDF1) mice
# Conditions: T/C endpoint: mean survival time, higher T/C = longer survival
# [1] = dose: 200.0 mg/kg/injection, schedule: Q01DX009 (ip), vehicle: saline
# [2] = dose: 400.0 mg/kg/injection, schedule: Q01DX001 (ip), vehicle: saline
# [3] = dose: 400.0 mg/kg/injection, schedule: Q01DX009 (ip), vehicle: Klucel (hydroxypropylcellulose) (HPC)
# [4] = dose: 50.0 mg/kg/injection, schedule: Q04DX003 (ip), vehicle: saline
# [5] = dose: 100.0 mg/kg/injection, schedule: Q01DX001 (ip), vehicle: saline
# [6] = dose: 25.0 mg/kg/injection, schedule: Q01DX009 (ip), vehicle: saline
# [7] = dose: 150.0 mg/kg/injection, schedule: Q01DX001 (ip), vehicle: saline
# [8] = dose: 300.0 mg/kg/injection, schedule: Q01DX001 (ip), vehicle: saline
# [9] = dose: 100.0 mg/kg/injection, schedule: Q04DX003 (ip), vehicle: saline
# [10] = dose: 200.0 mg/kg/injection, schedule: Q01DX001 (ip), vehicle: saline
# [11] = dose: 200.0 mg/kg/injection, schedule: Q04DX003 (ip), vehicle: saline
# [12] = dose: 400.0 mg/kg/injection, schedule: Q04DX003 (ip), vehicle: saline
# [13] = dose: 400.0 mg/kg/injection, schedule: Q04DX002 (ip), vehicle: saline with Tween-80
smiles,measurement,setting,value
Cc1c(Cl)cccc1NC(=O)Nc1ccccc1,survivor count,"dose: 100.0 mg/kg/injection, schedule: Q01DX009 (ip), vehicle: DMSO",6 of 6
same,survivor count,"dose: 200.0 mg/kg/injection, schedule: Q01DX009 (ip), vehicle: DMSO",6 of 6
same,survivor count,"dose: 400.0 mg/kg/injection, schedule: Q01DX009 (ip), vehicle: DMSO",6 of 6
CC(=O)OC(C)(/N=N/C(C)(OC(C)=O)c1ccc(Cl)cc1)c1ccc(Cl)cc1 (stereo not given),survivor count,"dose: 200.0 mg/kg/injection, schedule: Q01DX001 (ip), vehicle: gum acacia",6 of 6
same,survivor count,"dose: 400.0 mg/kg/injection, schedule: Q01DX001 (ip), vehicle: gum acacia",6 of 6
Cc1nccc2c(C)c3sc4ccccc4c3cc12,survivor count,"dose: 480.0 mg/kg/injection, schedule: Q01DX001 (ip), vehicle: alcohol",0 of 4
Cn1cc(NC(=O)c2cc(NC(=O)c3cc(NC=O)cn3C)cn2C)cc1C(=O)NCCC(=N)N,survivor count,"dose: 100.0 mg/kg/injection, schedule: Q01DX009 (ip), vehicle: saline",6 of 6
same,survivor count,[1],2 of 6
same,survivor count,"dose: 400.0 mg/kg/injection, schedule: Q01DX009 (ip), vehicle: saline",0 of 6
CC(C)(C)C(=O)c1nn[nH]n1,survivor count,[1],2 of 6
same,survivor count,[2],1 of 6
CN1CC(=O)n2c(cc3ccccc32)C1=O,T/C,"dose: 200.0 mg/kg/injection, schedule: Q04DX002 (ip), vehicle: saline",125 % of control
CCc1c(C#N)oc2ccc(O)cc12,survivor count,[3],6 of 6
Cc1nc(N)nc(N)c1-c1ccc(Cl)c(Cl)c1,T/C,"dose: 2.0 mg/kg/injection, schedule: Q01DX009 (ip), vehicle: saline with Tween-80",125 % of control
same,T/C,"dose: 2.0 mg/kg/injection, schedule: Q01DX010 (sc), vehicle: other",139 % of control
same,T/C,"dose: 4.0 mg/kg/injection, schedule: Q01DX009 (ip), vehicle: saline with Tween-80",127 % of control
same,T/C,"dose: 4.0 mg/kg/injection, schedule: Q04DX009 (ip), vehicle: Klucel (hydroxypropylcellulose) (HPC)",126 % of control
same,T/C,"dose: 5.0 mg/kg/injection, schedule: Q01DX010 (sc), vehicle: other",131 % of control
same,T/C,"dose: 8.4 mg/kg/injection, schedule: Q01DX009 (ip), vehicle: saline",127 % of control
same,T/C,[4],132 % of control
same,survivor count,[5],5 of 6
O=C(O)c1cc[c]([Hg][S]c2ncnc3nc[nH]c23)cc1,T/C,"dose: 12.5 mg/kg/injection, schedule: Q01DX015 (ip), vehicle: saline",134 % of control
same,T/C,[6],136 % of control
same,T/C,"dose: 37.5 mg/kg/injection, schedule: Q01DX009 (ip), vehicle: saline",138 % of control [4 of 5 alive]
same,survivor count,"dose: 50.0 mg/kg/injection, schedule: Q01DX015 (ip), vehicle: saline",0 of 6
same,T/C,"dose: 50.0 mg/kg/injection, schedule: Q01DX Z (ip), vehicle: carboxymethylcellulose (CMC)",132 % of control
same,survivor count,"dose: 75.0 mg/kg/injection, schedule: Q01DX001 (ip), vehicle: saline",3 of 6
same,survivor count,"dose: 100.0 mg/kg/injection, schedule: Q01DX015 (ip), vehicle: saline",0 of 6
same,survivor count,[7],0 of 6
same,survivor count,"dose: 200.0 mg/kg/injection, schedule: Q01DX Z (ip), vehicle: carboxymethylcellulose (CMC)",0 of 6
same,survivor count,[8],0 of 6
c1ccc(-c2nnc3ccccn23)cc1,survivor count,"dose: 400.0 mg/kg/injection, schedule: Q01DX001 (ip), vehicle: Klucel (hydroxypropylcellulose) (HPC)",0 of 6
Cn1c(=O)c(CBr)nc2ccccc21,survivor count,"dose: 40.0 mg/kg/injection, schedule: Q01DX015 (ip), vehicle: carboxymethylcellulose (CMC)",0 of 6
same,survivor count,"dose: 80.0 mg/kg/injection, schedule: Q01DX015 (ip), vehicle: carboxymethylcellulose (CMC)",0 of 6
same,survivor count,"dose: 160.0 mg/kg/injection, schedule: Q01DX015 (ip), vehicle: carboxymethylcellulose (CMC)",0 of 6
O=C(/C=C\C=C\c1ccccc1)c1ccc([N+](=O)[O-])cc1,survivor count,"dose: 200.0 mg/kg/injection, schedule: Q01DX009 (ip), vehicle: carboxymethylcellulose (CMC)",3 of 3
C[n+]1c2c(cc3ccccc31)CCC2,survivor count,"dose: 100.0 mg/kg/injection, schedule: Q01DX009 (ip), vehicle: saline with Tween-80",1 of 3
same,survivor count,"dose: 200.0 mg/kg/injection, schedule: Q01DX009 (ip), vehicle: saline with Tween-80",0 of 3
COC1OC(C)C(O)C(O)[CH]1[Hg][O]C(C)=O (stereo not given),survivor count,"dose: 12.5 mg/kg/injection, schedule: Q01DX009 (ip), vehicle: saline",2 of 6
same,survivor count,"dose: 20.0 mg/kg/injection, schedule: Q01DX001 (ip), vehicle: saline",0 of 4
same,survivor count,[6],0 of 6
same,survivor count,"dose: 25.0 mg/kg/injection, schedule: Q04DX003 (ip), vehicle: saline",0 of 6
same,survivor count,"dose: 40.0 mg/kg/injection, schedule: Q01DX001 (ip), vehicle: saline",0 of 4
same,survivor count,"dose: 50.0 mg/kg/injection, schedule: Q01DX001 (ip), vehicle: saline",0 of 4
same,survivor count,[4],0 of 6
same,survivor count,"dose: 80.0 mg/kg/injection, schedule: Q01DX001 (ip), vehicle: saline",0 of 4
same,survivor count,[5],0 of 4
same,survivor count,[9],0 of 6
same,survivor count,[10],0 of 4
same,survivor count,[11],0 of 6
same,survivor count,[2],0 of 4
same,survivor count,[12],0 of 6
CC1CN1CO (stereo not given),survivor count,[7],0 of 6
same,survivor count,[8],0 of 6
COc1ccccc1OCCOCCN(C)C1CC2CCC1(C)C2(C)C (stereo not given),survivor count,"dose: 200.0 mg/kg/injection, schedule: Q04DX003 (ip), vehicle: Klucel (hydroxypropylcellulose) (HPC)",1 of 6
same,survivor count,"dose: 400.0 mg/kg/injection, schedule: Q04DX003 (ip), vehicle: Klucel (hydroxypropylcellulose) (HPC)",0 of 6
CCOC(=O)c1ccc(NC(=O)Nc2c(C)n(C)n(-c3ccccc3)c2=O)cc1,survivor count,"dose: 400.0 mg/kg/injection, schedule: Q01DX009 (ip), vehicle: saline with Tween-80",2 of 6
COc1ccc2c(c1)c(C)cc[n+]2C,survivor count,"dose: 75.0 mg/kg/injection, schedule: Q01DX009 (ip), vehicle: saline",0 of 6
same,survivor count,[5],1 of 7
same,survivor count,"dose: 115.0 mg/kg/injection, schedule: Q01DX009 (ip), vehicle: saline",0 of 6
same,survivor count,"dose: 170.0 mg/kg/injection, schedule: Q01DX009 (ip), vehicle: saline",0 of 6
same,survivor count,[10],0 of 7
same,survivor count,[2],0 of 7
CC(O)(C(F)(F)F)C(C)(O)C(F)(F)F (stereo not given),survivor count,[13],0 of 3
CN(C)N(P(N)(Cl)(c1ccccc1)c1ccccc1)P(N)(Cl)(c1ccccc1)c1ccccc1,survivor count,"dose: 100.0 mg/kg/injection, schedule: Q01DX001 (ip), vehicle: steroid suspending solution",2 of 4
same,survivor count,"dose: 200.0 mg/kg/injection, schedule: Q01DX001 (ip), vehicle: steroid suspending solution",0 of 4
same,survivor count,"dose: 400.0 mg/kg/injection, schedule: Q01DX001 (ip), vehicle: steroid suspending solution",0 of 4
O=C1c2cccc3c(Br)ccc(c23)C(=O)N1CCCN1CCOCC1,survivor count,"dose: 100.0 mg/kg/injection, schedule: Q01DX009 (ip), vehicle: Klucel (hydroxypropylcellulose) (HPC)",3 of 6
same,survivor count,"dose: 200.0 mg/kg/injection, schedule: Q01DX009 (ip), vehicle: Klucel (hydroxypropylcellulose) (HPC)",4 of 6
same,survivor count,[3],0 of 6
CCN(CC)c1ccc(NCN2C(=O)c3ccccc3C2=O)c(C)c1,survivor count,[13],3 of 3
Cc1oncc1/C=C/c1ccon1,survivor count,"dose: 400.0 mg/kg/injection, schedule: Q04DX003 (ip), vehicle: other",1 of 6
CCCOC(C(=O)OC1CCN(C)CC1)(c1ccccc1)c1ccccc1,survivor count,[9],3 of 6
same,survivor count,[11],0 of 6
same,survivor count,[12],0 of 6

# Source: PubChem BioAssay AID248 (DTP/NCI, 2004)
